Measured values as given in PMC7808939.
These are yes or no findings as the source states them, for the method shown. For part of these data: In cells and extracts the contact can be indirect. Some binding calls cover weakened binding; strength is not graded here. For part of these data: Tags and fused reporters may be left off the sequences shown. Each block holds one binder with its values, some of them ahead of it.

Experiments:
Flag-D3 (NIH3T3) = target: T1, Flag-D3 (NIH3T3) (UniProt P30282); assay: co-IP; NIH3T3 co-transfected with HA-GFP or HA-Fbxl8 (wild type or deletion mutants) and Flag-D3, MG132 (20 μM) for 4 h; anti-Flag beads
T1 sequence: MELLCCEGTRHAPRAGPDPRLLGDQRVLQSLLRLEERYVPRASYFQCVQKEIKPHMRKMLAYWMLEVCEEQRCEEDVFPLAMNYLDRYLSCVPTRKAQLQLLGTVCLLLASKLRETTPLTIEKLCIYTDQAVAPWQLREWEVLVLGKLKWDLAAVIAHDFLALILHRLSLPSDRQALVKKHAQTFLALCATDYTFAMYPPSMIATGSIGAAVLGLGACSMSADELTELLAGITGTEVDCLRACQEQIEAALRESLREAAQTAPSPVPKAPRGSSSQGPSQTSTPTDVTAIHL

[1] = target: T2, Flag-Fbxo4 (Sf9, purified) (UniProt Q8CHQ0); assay: pull-down; in vitro binding: Flag-Fbxl8 or Flag-Fbxo4 purified on anti Flag beads from sf9, incubated 4 h with cyclin D3/CDK4 or cyclin D2/CDK4 purified from sf9; washed 5 times with Tween20 lysis buffer (50 mM HEPES pH 8.0, 150 mM NaCl, 0.1% Tween 20); western blot; both purified
T2 sequence: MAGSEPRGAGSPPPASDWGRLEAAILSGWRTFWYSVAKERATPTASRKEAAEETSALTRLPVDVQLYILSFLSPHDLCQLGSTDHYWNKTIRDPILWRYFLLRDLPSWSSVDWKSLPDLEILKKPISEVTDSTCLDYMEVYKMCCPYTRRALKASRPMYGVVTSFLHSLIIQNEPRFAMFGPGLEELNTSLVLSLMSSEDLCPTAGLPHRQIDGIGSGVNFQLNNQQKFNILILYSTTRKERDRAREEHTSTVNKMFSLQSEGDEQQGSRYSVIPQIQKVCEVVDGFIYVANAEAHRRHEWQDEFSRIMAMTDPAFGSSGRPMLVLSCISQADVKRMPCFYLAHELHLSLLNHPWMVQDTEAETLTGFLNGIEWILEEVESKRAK

[2] = target: T3, Flag-Fbxl8 (Sf9, purified) (UniProt Q8CIG9); assay: as above
T3 sequence: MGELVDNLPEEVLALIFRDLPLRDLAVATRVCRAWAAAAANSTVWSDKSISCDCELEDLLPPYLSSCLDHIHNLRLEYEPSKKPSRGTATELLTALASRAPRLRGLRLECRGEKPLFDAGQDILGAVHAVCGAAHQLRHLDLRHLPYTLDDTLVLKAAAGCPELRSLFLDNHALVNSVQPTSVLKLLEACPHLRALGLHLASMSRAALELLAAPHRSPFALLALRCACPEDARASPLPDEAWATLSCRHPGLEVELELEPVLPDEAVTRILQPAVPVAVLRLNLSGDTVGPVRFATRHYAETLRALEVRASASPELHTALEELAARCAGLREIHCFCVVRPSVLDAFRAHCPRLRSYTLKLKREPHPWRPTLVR

HA-Fbxl8 (HEK293T) = target: T4, HA-Fbxl8 (HEK293T) (UniProt Q8CIG9); assay: co-IP; HEK293T co-transfected with Flag-cyclin D3 or D3TA and HA-Fbxl8, with or without MG132 (20 μM) for 4 h; normal IgG or anti-HA
T4 sequence: T3 sequence

[3] = target: T5, Fbxl8 (immunoprecipitation of Fig. S5C) (UniProt Q8CIG9); assay: co-IP; immunoprecipitation (Fig. S5C), without Leptomycin B; cells and constructs not shown
T5 sequence: T3 sequence

[4] = target: T6, endogenous Fbxl8 (NIH3T3 cells) (mouse (endogenous in NIH3T3)) (UniProt Q8CIG9); assay: co-IP; endogenous proteins, NIH3T3 lysate, MG132 (20 μM) for 4 h; normal IgG or an antibody specific for Fbxl8; blot for cyclin D3, D2, D1
T6 sequence: T3 sequence

B2: Cyclin D3/CDK4 (Sf9, purified) (complex, UniProt P30282 1-292; P30285 1-303)
chain 1: T1 sequence
chain 2: MAATRYEPVAEIGVGAYGTVYKARDPHSGHFVALKSVRVPNGGAAGGGLPVSTVREVALLRRLEAFEHPNVVRLMDVCATSRTDRDIKVTLVFEHIDQDLRTYLDKAPPPGLPVETIKDLMRQFLSGLDFLHANCIVHRDLKPENILVTSNGTVKLADFGLARIYSYQMALTPVVVTLWYRAPEVLLQSTYATPVDMWSVGCIFAEMFRRKPLFCGNSEADQLGKIFDLIGLPPEDDWPREVSLPRGAFAPRGPRPVQSVVPEMEESGAQLLLEMLTFNPHKRISAFRALQHSYLHKEESDAE
- binding [1]: no binding
- binding [2]: binds

B4: cyclin D3 (immunoprecipitation of Fig. S5C) (protein, UniProt P30282 1-292)
chain: T1 sequence
- binding [3]: binds

B5: endogenous cyclin D3 (NIH3T3 cells) (protein, UniProt P30282 1-292)
chain: T1 sequence
- binding [4]: binds

The remaining lines, values ahead:

- binding (Flag-D3 (NIH3T3)): binds
B1: HA-Fbxl8 wild type (NIH3T3) (protein, UniProt Q8CIG9 1-374)
chain: T3 sequence

- binding (HA-Fbxl8 (HEK293T)): binds
B3: Flag-tagged cyclin D3 (HEK293T) (protein, UniProt P30282 1-292)
chain: T1 sequence
